These are yes or no findings as the source states them, for the method shown. Some entries that bind do so weakly or less than the wild type.
T1: Psm1 (fission yeast (S. pombe)) (UniProt O94383)
T1 sequence: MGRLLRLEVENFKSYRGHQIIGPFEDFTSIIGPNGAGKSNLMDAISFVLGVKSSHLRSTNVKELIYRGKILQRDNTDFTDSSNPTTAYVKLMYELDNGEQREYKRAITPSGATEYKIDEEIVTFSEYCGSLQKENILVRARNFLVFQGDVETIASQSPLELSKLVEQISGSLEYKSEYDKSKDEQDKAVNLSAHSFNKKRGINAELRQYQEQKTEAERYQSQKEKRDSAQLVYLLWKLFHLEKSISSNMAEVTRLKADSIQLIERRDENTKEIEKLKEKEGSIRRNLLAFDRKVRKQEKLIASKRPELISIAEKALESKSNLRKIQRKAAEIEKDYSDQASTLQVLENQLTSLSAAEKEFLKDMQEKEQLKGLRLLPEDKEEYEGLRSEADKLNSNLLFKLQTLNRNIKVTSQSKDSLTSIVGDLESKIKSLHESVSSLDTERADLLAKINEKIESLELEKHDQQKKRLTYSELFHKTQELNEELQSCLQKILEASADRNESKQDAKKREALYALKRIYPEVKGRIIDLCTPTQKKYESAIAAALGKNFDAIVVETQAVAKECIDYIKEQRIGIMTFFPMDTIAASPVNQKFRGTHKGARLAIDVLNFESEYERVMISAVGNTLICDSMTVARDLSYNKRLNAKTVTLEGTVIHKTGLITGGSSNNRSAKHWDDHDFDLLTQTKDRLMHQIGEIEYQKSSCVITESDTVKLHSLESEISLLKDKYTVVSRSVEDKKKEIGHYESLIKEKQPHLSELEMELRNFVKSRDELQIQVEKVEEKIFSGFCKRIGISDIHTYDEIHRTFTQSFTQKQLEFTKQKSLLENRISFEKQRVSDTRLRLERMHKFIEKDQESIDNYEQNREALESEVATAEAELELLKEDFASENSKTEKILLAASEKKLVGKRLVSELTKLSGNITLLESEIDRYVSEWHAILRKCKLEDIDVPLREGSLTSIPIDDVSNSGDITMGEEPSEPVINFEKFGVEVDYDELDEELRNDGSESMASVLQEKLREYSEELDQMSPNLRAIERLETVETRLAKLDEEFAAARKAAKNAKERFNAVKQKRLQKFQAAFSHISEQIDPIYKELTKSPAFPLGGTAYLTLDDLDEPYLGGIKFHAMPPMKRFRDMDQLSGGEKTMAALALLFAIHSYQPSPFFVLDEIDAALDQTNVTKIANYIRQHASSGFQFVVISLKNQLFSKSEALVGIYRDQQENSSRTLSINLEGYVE

T2: Rad21 (fission yeast (S. pombe)) (UniProt P30776)
T2 sequence: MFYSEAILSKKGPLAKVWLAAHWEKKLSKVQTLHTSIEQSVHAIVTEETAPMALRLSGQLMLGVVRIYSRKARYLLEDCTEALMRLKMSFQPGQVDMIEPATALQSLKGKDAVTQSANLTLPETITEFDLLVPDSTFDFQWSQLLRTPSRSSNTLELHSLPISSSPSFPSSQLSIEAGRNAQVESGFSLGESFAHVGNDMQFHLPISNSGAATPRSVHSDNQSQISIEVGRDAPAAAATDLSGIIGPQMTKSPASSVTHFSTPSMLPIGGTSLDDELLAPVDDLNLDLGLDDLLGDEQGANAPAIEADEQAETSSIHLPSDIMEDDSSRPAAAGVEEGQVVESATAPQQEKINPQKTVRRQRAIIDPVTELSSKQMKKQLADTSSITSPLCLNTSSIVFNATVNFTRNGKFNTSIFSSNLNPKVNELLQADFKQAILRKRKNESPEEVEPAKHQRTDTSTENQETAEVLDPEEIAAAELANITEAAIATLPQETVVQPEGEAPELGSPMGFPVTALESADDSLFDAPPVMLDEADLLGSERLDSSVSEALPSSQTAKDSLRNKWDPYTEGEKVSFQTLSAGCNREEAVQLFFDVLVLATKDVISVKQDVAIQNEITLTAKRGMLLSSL


Experiments:
[1] = biological target: T1, Psm1 (fission yeast (S. pombe)); assay: cryo-EM structure; gripping state: cohesin tetramer, Mis4-Ssl3 and 125-bp linear dsDNA with ADP and BeSO4 + NaF (ADP·BeF3-), peak fractions of a sucrose gradient; 3.9 Å map of the cohesin core; both purified
[2] = biological target: T2, Rad21 (fission yeast (S. pombe)); assay: cross-linking; SDA (NHS-diazirine) UV crosslinking with mass spectrometry (CLMS), gripping state: 200 nM cohesin, 200 nM Mis4-Ssl3, 200 nM 125 bp dsDNA, 0.5 mM ADP and 0.5 mM BeSO4 + 10 mM NaF, 32°C 20 min; both purified

binding [1] | binding [2] | Binder
binds |  | Rad21 (protein, UniProt P30776 1-628) MFYSEAILSKKGPLAKVWLAAHWEKKLSKVQTLHTSIEQSVHAIVTEETAPMALRLSGQLMLGVVRIYSRKARYLLEDCTEALMRLKMSFQPGQVDMIEPATALQSLKGKDAVTQSANLTLPETITEFDLLVPDSTFDFQWSQLLRTPSRSSNTLELHSLPISSSPSFPSSQLSIEAGRNAQVESGFSLGESFAHVGNDMQFHLPISNSGAATPRSVHSDNQSQISIEVGRDAPAAAATDLSGIIGPQMTKSPASSVTHFSTPSMLPIGGTSLDDELLAPVDDLNLDLGLDDLLGDEQGANAPAIEADEQAETSSIHLPSDIMEDDSSRPAAAGVEEGQVVESATAPQQEKINPQKTVRRQRAIIDPVTELSSKQMKKQLADTSSITSPLCLNTSSIVFNATVNFTRNGKFNTSIFSSNLNPKVNELLQADFKQAILRKRKNESPEEVEPAKHQRTDTSTENQETAEVLDPEEIAAAELANITEAAIATLPQETVVQPEGEAPELGSPMGFPVTALESADDSLFDAPPVMLDEADLLGSERLDSSVSEALPSSQTAKDSLRNKWDPYTEGEKVSFQTLSAGCNREEAVQLFFDVLVLATKDVISVKQDVAIQNEITLTAKRGMLLSSL
 | binds | Psc3 (natural protein, fission yeast (S. pombe), UniProt O13816 1-962, looked up, Psc3 (Scc3/STAG1/2), HEAT repeat subunit of fission yeast cohesin; Subunit of the wild-type tetramer; constructs from Murayama and Uhlmann, 2014; also called Psc3^Scc3/STAG1/2; Scc3; source: budding yeast (W303 background), galactose-induced, purified as part of the cohesin tetramer) MSESVTTGSDDDGGDRESSPVMLSQSFDPMSSSSNSSSEENSDDDYEKTISSKKRHPRPNSKGVNVKRSRRNAIVEEDPQEEIFNNLFAFLLDQKVDTMDIAVSWFADYAKDNQSALANLINFILKCCGCNRAINVFDVQDQDSASATLSQIQLSVERTSTRDYPLNSKNLKFRNFRKRLTGLLSNFVSQLSIRNYLYNSTVFEDIMSWVVAMSSSTMRPIRHTATVFCLNIMTFLCEKSKELLNEHAIATKQLEKEEKRSRVNRNRINELNNSLGEIVKQQDTLTTYLNDYFDSVFVHRYRDVEPKIRVDCLQELGVWINTVPSIFFSGSYLRYLGWMLSDINTTVRLTVVKVLRKFFETDSFIGGLRHFSSRFKERILEMSCVDADIGVRVASIRLCNAMRTCGFLENSEILKVLKLILDINPRVQREAVLFLCKVVDESVNEKIDLWGEEDYILKAFSQTSLTTFSVHWIKFSQMCKLLEEVRLSYQSSFDYDTLLRIFQKNGNFITPITQALLNACEIDSIYQSWEDISNFVLFDNYTSTLKDPIDSILSFCKLNDFQESILLQLLSASIQTVCNNNFITPKTVHNKQAAETTNDQNKDKDLLYLNLLPYINSITERNSASPTLLHDSLRLLFSMDLTEMTDPQLSRHFELLINNLKKFFLTNNDLQIIQGCTILFLRLDSIPALKEDLKLLVTDICDQTVTEFLKNFGSFNIQDAVITKDEFVIFEACLTRIEGCTSLKDFSDYPEFDIIYERLVSLLSRVPNSYEDTLKFSAINTLQSLLFWFFLRKDNPADEEKKKDDETKVFNCLINIMNNDSSKILQLQAARTFLETVIMKEGVKASHYNDDNRVSEEHNFLKPQFLDALLKILEGWLYTYAKVGQFPFKRLTQASSPHTQISLDKNPLNRRLLEHVCCDLTSKLLIVVSLSNTITPEFSQQFCELRGHYGPKLSAIVDEFLN

Source: publication PMC7507959, “A Structure-Based Mechanism for DNA Entry into the Cohesin Ring” (Molecular Cell, 2020)
